Experimental data taken from article doi:10.1101/2021.07.08.451585.
These are yes or no findings as the source states them, for the method shown. Binding seen in cells or lysates may run through a third protein. Some entries that bind do so weakly or less than the wild type. Tags and fused reporters may be left off the sequences shown.

Biological target: T1, BioID2-tagged wildtype human CLUH (BioID2-3xHA-CLUH) (human) (UniProt O75153)
T1 sequence: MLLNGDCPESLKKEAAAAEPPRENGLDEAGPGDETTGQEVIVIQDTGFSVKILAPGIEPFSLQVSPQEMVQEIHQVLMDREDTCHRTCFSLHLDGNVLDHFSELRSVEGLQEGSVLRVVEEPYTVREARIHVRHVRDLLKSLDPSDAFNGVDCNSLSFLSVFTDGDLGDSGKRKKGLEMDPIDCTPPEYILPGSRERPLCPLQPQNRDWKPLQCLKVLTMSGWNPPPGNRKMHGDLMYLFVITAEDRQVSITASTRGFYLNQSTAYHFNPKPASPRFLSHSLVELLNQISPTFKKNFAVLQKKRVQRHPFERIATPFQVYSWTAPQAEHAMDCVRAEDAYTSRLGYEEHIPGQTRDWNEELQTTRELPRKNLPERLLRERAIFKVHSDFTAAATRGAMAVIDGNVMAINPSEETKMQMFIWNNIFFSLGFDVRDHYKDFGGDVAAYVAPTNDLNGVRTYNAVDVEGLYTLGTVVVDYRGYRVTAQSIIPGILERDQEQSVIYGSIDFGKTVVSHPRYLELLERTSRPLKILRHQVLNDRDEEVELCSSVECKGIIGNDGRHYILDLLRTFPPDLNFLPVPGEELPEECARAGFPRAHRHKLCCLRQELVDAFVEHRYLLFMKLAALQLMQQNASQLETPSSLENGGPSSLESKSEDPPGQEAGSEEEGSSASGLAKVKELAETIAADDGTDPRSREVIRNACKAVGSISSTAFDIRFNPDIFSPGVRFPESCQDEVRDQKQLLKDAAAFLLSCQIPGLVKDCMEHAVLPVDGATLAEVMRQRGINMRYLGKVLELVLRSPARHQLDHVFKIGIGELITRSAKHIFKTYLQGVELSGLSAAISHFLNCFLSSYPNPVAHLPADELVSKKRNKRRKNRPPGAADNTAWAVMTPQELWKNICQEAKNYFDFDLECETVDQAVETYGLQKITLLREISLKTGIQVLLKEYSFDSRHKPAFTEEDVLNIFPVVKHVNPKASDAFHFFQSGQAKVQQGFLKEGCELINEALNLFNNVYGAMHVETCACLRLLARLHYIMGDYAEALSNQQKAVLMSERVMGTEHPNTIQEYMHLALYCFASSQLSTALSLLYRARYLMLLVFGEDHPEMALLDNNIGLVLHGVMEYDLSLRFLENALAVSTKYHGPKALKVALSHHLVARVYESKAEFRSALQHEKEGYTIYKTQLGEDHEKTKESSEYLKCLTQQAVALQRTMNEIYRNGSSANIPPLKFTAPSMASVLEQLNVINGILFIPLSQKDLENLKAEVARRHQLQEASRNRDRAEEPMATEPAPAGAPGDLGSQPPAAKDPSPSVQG
Assay: co-IP

B1: SPAG5, endogenous in HCT116 cells (protein, UniProt Q96R06 1-1193)
chain: MWRVKKLSLSLSPSPQTGKPSMRTPLRELTLQPGALTNSGKRSPACSSLTPSLCKLGLQEGSNNSSPVDFVNNKRTDLSSEHFSHSSKWLETCQHESDEQPLDPIPQISSTPKTSEEAVDPLGNYMVKTIVLVPSPLGQQQDMIFEARLDTMAETNSISLNGPLRTDDLVREEVAPCMGDRFSEVAAVSEKPIFQESPSHLLEESPPNPCSEQLHCSKESLSSRTEAVREDLVPSESNAFLPSSVLWLSPSTALAADFRVNHVDPEEEIVEHGAMEEREMRFPTHPKESETEDQALVSSVEDILSTCLTPNLVEMESQEAPGPAVEDVGRILGSDTESWMSPLAWLEKGVNTSVMLENLRQSLSLPSMLRDAAIGTTPFSTCSVGTWFTPSAPQEKSTNTSQTGLVGTKHSTSETEQLLCGRPPDLTALSRHDLEDNLLSSLVILEVLSRQLRDWKSQLAVPHPETQDSSTQTDTSHSGITNKLQHLKESHEMGQALQQARNVMQSWVLISKELISLLHLSLLHLEEDKTTVSQESRRAETLVCCCFDLLKKLRAKLQSLKAEREEARHREEMALRGKDAAEIVLEAFCAHASQRISQLEQDLASMREFRGLLKDAQTQLVGLHAKQEELVQQTVSLTSTLQQDWRSMQLDYTTWTALLSRSRQLTEKLTVKSQQALQERDVAIEEKQEVSRVLEQVSAQLEECKGQTEQLELENSRLATDLRAQLQILANMDSQLKELQSQHTHCAQDLAMKDELLCQLTQSNEEQAAQWQKEEMALKHMQAELQQQQAVLAKEVRDLKETLEFADQENQVAHLELGQVECQLKTTLEVLRERSLQCENLKDTVENLTAKLASTIADNQEQDLEKTRQYSQKLGLLTEQLQSLTLFLQTKLKEKTEQETLLLSTACPPTQEHPLPNDRTFLGSILTAVADEEPESTPVPLLGSDKSAFTRVASMVSLQPAETPGMEESLAEMSIMTTELQSLCSLLQESKEEAIRTLQRKICELQARLQAQEEQHQEVQKAKEADIEKLNQALCLRYKNEKELQEVIQQQNEKILEQIDKSGELISLREEVTHLTRSLRRAETETKVLQEALAGQLDSNCQPMATNWIQEKVWLSQEVDKLRVMFLEMKNEKEKLMIKFQSHRNILEENLRRSDKELEKLDDIVQHIYKTLLSIPEVVRGCKELQGLLEFLS
binding: binds
